Measured values reported in patent EP2924037A1, “QUINAZOLINE DERIVATE AND USE THEREOF AS APOPTOSIS INHIBITOR” (Linx Pharmaceutical Co., Ltd., priority 2012, dated 2013).
For at least one compound, name, drawing or mass did not settle the structure.

Tested on: cerebral thrombosis
Experiment: Mouse model of cerebral thrombosis, infarct volume
Assay type: in vivo
Conditions: 0.4 mg/kg i.p.; 6 mice per condition; t-test P<0.05
Procedure: In a mouse model of cerebral thrombosis, the mouse brains were stained after death from thrombosis. […] The statistical analysis was performed based on % infarct volume = white area/total area, 6 mice were tested for each condition. t-test, P<0.05.

## COc1c(OC)c(OC)c2c(N)nc(N3CCN(C(=O)C4CCCO4)CC3)nc2c1NC(=O)c1ccccc1 (stereo not shown) [Co.31]
  infarct volume (% infarct volume = white area/total area): effective to reduce the infarct volume
